From paper PMC5034536, “Molecular insights into substrate recognition and catalytic mechanism of the chaperone and FKBP peptidyl-prolyl isomerase SlyD” (BMC Biology, 2016)
These are yes or no findings as the source states them, for the method shown. Binding can be weak; no strength is given.

Molecular target: full-length SlyD from Thermus thermophilus (TtSlyDFL) (Thermus thermophilus)
Assay: crystal structure; co-crystallisation; protein at 30–60 mg/ml incubated with a threefold excess of peptide; sitting drop, 4 °C, PEG, pH 5.0–8.0; both purified

Row | binding | Binder
1 | binds | TRYWNPKMKPFIFGA (C-terminal amide) [S2 peptide]
2 | binds | VGSNSYPHKYNNYEG (C-terminal amide) [T1 peptide]
3 | binds | KMKPFIFGARNKVHI (C-terminal amide) [S2-plus2 peptide]
